Laboratory results: PMC8345219 (Cancers, 2021)
Results are given in words; binding and its absence hold for the method and conditions named. Binding seen in cells or lysates may run through a third protein. Some binding calls cover weakened binding; strength is not graded here. Tags and fused reporters may be left off the sequences shown.

Chains of the proteins cited; added tags and fusions are not shown.
UniProt P32120: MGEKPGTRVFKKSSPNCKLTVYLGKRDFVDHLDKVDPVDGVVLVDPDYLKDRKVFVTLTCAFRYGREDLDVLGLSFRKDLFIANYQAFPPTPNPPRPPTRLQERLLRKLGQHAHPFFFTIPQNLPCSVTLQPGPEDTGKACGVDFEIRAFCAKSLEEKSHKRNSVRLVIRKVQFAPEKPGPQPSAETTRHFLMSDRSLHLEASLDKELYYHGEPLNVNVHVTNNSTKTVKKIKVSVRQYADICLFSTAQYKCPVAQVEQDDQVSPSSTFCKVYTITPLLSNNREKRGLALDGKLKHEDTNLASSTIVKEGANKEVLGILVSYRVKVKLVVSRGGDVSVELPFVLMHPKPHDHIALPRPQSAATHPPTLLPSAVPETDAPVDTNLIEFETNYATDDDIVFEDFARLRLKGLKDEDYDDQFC

Target: T1, chemokine-like receptor 1 fused to eYFP (hCMKLR1-eYFP) (human) (UniProt Q99788)
T1 sequence: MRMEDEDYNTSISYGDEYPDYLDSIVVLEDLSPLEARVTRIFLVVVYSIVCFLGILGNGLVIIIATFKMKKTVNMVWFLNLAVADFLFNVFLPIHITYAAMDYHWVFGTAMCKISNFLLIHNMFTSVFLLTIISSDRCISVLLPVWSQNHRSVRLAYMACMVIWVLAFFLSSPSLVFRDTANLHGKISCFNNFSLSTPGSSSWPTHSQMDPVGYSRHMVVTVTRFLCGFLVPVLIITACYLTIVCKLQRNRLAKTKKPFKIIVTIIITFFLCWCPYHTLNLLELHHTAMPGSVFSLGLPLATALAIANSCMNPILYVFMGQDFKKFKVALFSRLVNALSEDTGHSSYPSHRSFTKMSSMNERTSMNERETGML
Assay: FRET or BRET; HEK293 cells transiently co-transfected with hCMKLR1-eYFP (+ chimeric G protein) and Rluc8-arrestin3; stimulated with peptide 1 or 12; BRET read 15 min after stimulation at 37 °C in BRET buffer (HBSS, 25 mM HEPES, pH 7.3), coelenterazine-h 4.2 µM

“bovine arrestin-3 fused to Rluc8 (from UniProt P32120 1-420)” was tested, and the binding was “binds”.
